Measurements reported in PubChem BioAssay AID1224831 (NIAID, 2016)

Screen: 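Confirming genome-wide hits on LPS-triggered TNF-alpha induction with independent siRNA sequences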 (follow-up of hits)
Cell system: human THP-1 B5 monocytic leukaemia cells carrying a TNF promoter luciferase reporter, made macrophage-like with PMA
Knock-down reagent: single siRNA against human genes, 50 nM
Duration: about 68 h of knock-down, then 4 h LPS
Challenge: LPS (Salmonella minnesota, TLR-grade) at 10 ng/ml for 4 h; PMA 5 ng/ml present during knock-down
Detection: 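Firefly to renilla luciferase ratio of a TNF promoter reporter after 4 h LPS, scaled to plate median, turned into robust z-score, averaged over replicates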
Scale: TNF reporter z-score: higher = stronger LPS-induced TNF reporter signal; z-score, median over gene's siRNAs: higher = stronger TNF reporter signal across the gene's siRNAs
Call rule: 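Two-sided call: reduced or raised TNF reporter signal counts as active once mean z reaches about -1 or below, or about 1.5 or above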
Calls: active = changed TNF reporter (either direction); inactive = little change
The deposit covers about 3,500 reagents; this is a random part of them. 731 of all reagents (21%) count as active. 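Active means either lowered or raised reporter signal; the gene-median score did not drive the per-siRNA calls.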 Entries without a mark were called inactive. Reagents against one gene are numbered here.

gene symbol,siRNA no.,"TNF reporter z-score, replicate mean","z-score, median over gene's siRNAs"
ATP6V1B2 (GeneID 526),1,-0.21,-0.27
ATP6V1B2 (GeneID 526),2,0.19,-0.27
ATP6V1B2 (GeneID 526),3,-0.48,-0.27
ATP6V1B2 (GeneID 526),4,-0.76,-0.27
ATP6V1B2 (GeneID 526),5,1.6 (active),-0.27
ATP6V1B2 (GeneID 526),6,-0.33,-0.27
IGFLR1 (GeneID 79713),1,1.78 (active),-0.135
IGFLR1 (GeneID 79713),2,-0.2,-0.135
IGFLR1 (GeneID 79713),3,0.2,-0.135
IGFLR1 (GeneID 79713),4,-0.63,-0.135
IGFLR1 (GeneID 79713),5,-0.13,-0.135
IGFLR1 (GeneID 79713),6,-0.14,-0.135
UCN3 (GeneID 114131),1,-2.15 (active),-0.395
UCN3 (GeneID 114131),2,-0.49,-0.395
UCN3 (GeneID 114131),3,-0.21,-0.395
UCN3 (GeneID 114131),4,-1.37 (active),-0.395
UCN3 (GeneID 114131),5,0.03,-0.395
UCN3 (GeneID 114131),6,-0.3,-0.395
MEGF6 (GeneID 1953),1,1.51 (active),0.315
MEGF6 (GeneID 1953),2,0.85,0.315
MEGF6 (GeneID 1953),3,-1.29 (active),0.315
MEGF6 (GeneID 1953),4,4.28 (active),0.315
MEGF6 (GeneID 1953),5,-0.22,0.315
MEGF6 (GeneID 1953),6,-0.3,0.315
BCL6 (GeneID 604),1,-1.21 (active),-1.4
BCL6 (GeneID 604),2,-2.01 (active),-1.4
BCL6 (GeneID 604),3,-2.72 (active),-1.4
BCL6 (GeneID 604),4,-1.37 (active),-1.4
BCL6 (GeneID 604),5,-1.3 (active),-1.4
BCL6 (GeneID 604),6,-1.43 (active),-1.4
SPRR1B (GeneID 6699),1,-0.48,-0.615
SPRR1B (GeneID 6699),2,0.43,-0.615
SPRR1B (GeneID 6699),3,0.81,-0.615
SPRR1B (GeneID 6699),4,-0.75,-0.615
SPRR1B (GeneID 6699),5,-0.75,-0.615
SPRR1B (GeneID 6699),6,-1.9 (active),-0.615
XPO1 (GeneID 7514),1,2.33 (active),2.6
XPO1 (GeneID 7514),2,3.3 (active),2.6
XPO1 (GeneID 7514),3,2.86 (active),2.6
XPO1 (GeneID 7514),4,-0.55,2.6
XPO1 (GeneID 7514),5,2.86 (active),2.6
XPO1 (GeneID 7514),6,1.55 (active),2.6
IL4I1 (GeneID 259307),1,0.85,0.35
IL4I1 (GeneID 259307),2,1.16,0.35
IL4I1 (GeneID 259307),3,3.15 (active),0.35
IL4I1 (GeneID 259307),4,-0.64,0.35
IL4I1 (GeneID 259307),5,-1.3 (active),0.35
IL4I1 (GeneID 259307),6,-0.15,0.35

Reprinted from the listing (8 entries):
gene symbol,siRNA no.,"TNF reporter z-score, replicate mean","z-score, median over gene's siRNAs"
BCL6 (GeneID 604),4,-1.37 (active),-1.4
BCL6 (GeneID 604),5,-1.3 (active),-1.4
BCL6 (GeneID 604),6,-1.43 (active),-1.4
SPRR1B (GeneID 6699),1,-0.48,-0.615
SPRR1B (GeneID 6699),2,0.43,-0.615
SPRR1B (GeneID 6699),3,0.81,-0.615
SPRR1B (GeneID 6699),4,-0.75,-0.615
SPRR1B (GeneID 6699),5,-0.75,-0.615

Additional entries:
gene symbol,siRNA no.,"TNF reporter z-score, replicate mean","z-score, median over gene's siRNAs"
IFNLR1 (GeneID 163702),1,1.39,0.95
IFNLR1 (GeneID 163702),2,1.89 (active),0.95
IFNLR1 (GeneID 163702),3,0.51,0.95
IFNLR1 (GeneID 163702),4,-0.42,0.95
IFNLR1 (GeneID 163702),5,2.07 (active),0.95
IFNLR1 (GeneID 163702),6,-0.51,0.95
HMGB1P1 (GeneID 10357),1,0.71,0.475
HMGB1P1 (GeneID 10357),2,0.52,0.475
HMGB1P1 (GeneID 10357),3,0.44,0.475
HMGB1P1 (GeneID 10357),4,-0.29,0.475
HMGB1P1 (GeneID 10357),5,-0.49,0.475
HMGB1P1 (GeneID 10357),6,0.51,0.475
NCOA6 (GeneID 23054),1,-0.37,-0.415
NCOA6 (GeneID 23054),2,-0.54,-0.415
NCOA6 (GeneID 23054),3,-0.9,-0.415
NCOA6 (GeneID 23054),4,0.12,-0.415
NCOA6 (GeneID 23054),5,-0.46,-0.415
NCOA6 (GeneID 23054),6,-0.32,-0.415
PRR15 (GeneID 222171),1,-0.56,-0.35
PRR15 (GeneID 222171),2,0.19,-0.35
PRR15 (GeneID 222171),3,0.49,-0.35
PRR15 (GeneID 222171),4,-0.59,-0.35
PRR15 (GeneID 222171),5,-0.24,-0.35
PRR15 (GeneID 222171),6,-0.46,-0.35
PCDHGB1 (GeneID 56104),1,-0.45,0.61
PCDHGB1 (GeneID 56104),2,0.04,0.61
PCDHGB1 (GeneID 56104),3,1.24,0.61
PCDHGB1 (GeneID 56104),4,1.29,0.61
PCDHGB1 (GeneID 56104),5,0.45,0.61
PCDHGB1 (GeneID 56104),6,0.77,0.61
SNW1 (GeneID 22938),1,-0.83,-0.81
SNW1 (GeneID 22938),2,-0.79,-0.81
SNW1 (GeneID 22938),3,-1.01 (active),-0.81
SNW1 (GeneID 22938),4,0.39,-0.81
SNW1 (GeneID 22938),5,-1.43 (active),-0.81
SNW1 (GeneID 22938),6,-0.67,-0.81
